Source: publication PMC11302984

Target: T1, GFP-VAPA (human) (UniProt Q9P0L0)
T1 sequence: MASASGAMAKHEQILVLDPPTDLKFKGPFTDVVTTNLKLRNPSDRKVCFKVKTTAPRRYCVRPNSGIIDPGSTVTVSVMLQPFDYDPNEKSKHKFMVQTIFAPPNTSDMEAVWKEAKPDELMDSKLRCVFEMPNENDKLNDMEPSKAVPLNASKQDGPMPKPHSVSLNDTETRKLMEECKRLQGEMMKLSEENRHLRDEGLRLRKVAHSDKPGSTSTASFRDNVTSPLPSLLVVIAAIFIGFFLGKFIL
Experiment: co-IP; from HEK293T cells expressing the tagged proteins; done as described previously (Cabukusta et al., 2020)

- binding: binds
Substance: Scarlet-ORP9 iso.2 (mouse)

No constants are given. Whether binding was seen depends on the method and setting. Binding seen in cells or lysates may run through a third protein. Binding can be weak; no strength is given. Sequences can lack the tags named with a protein.
